Results are given in words; binding and its absence hold for the method and conditions named. Tags and fused reporters may be left off the sequences shown.
Molecular target: MBP-PP1-87B (Drosophila) (UniProt P12982)
Assay: pull-down; purified 6xHis-N-Mps1 fragments incubated with MBP or MBP-PP1-87B bound to amylose magnetic beads; column buffer 250 mM NaCl, 20 mM Tris-HCl pH 7.4, 1 mM EDTA, 1 mM DTT; 60 min, room temperature; western blot; both purified

Sequences of proteins named here, by UniProt entry; tags and fusion partners are left off.
UniProt P12982: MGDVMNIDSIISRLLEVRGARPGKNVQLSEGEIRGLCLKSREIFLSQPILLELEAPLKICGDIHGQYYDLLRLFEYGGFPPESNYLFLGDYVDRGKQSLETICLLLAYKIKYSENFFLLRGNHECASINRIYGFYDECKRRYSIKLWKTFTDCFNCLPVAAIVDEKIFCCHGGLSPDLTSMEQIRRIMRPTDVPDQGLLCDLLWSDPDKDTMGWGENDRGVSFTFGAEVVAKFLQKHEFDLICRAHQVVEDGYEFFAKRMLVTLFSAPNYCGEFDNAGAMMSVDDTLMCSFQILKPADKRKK

binding: no binding
B1: 6xHis-N-Mps1^K231A/F234A (domain or fragment, UniProt Q9VEH1 104-330)
chain: PSQELTNSNSNITTRRTPSAAPLKQSDSNLSFLGRFNDMGINCSSQGSPVANSEKQVAKKTAPTLQAAPSATERRPLQETETPLRNELPSTSKTKPDADFITPQVRTIGSTLAGKSRSAVSNDFRAQAVLAQTPMTVSRAAPVASDSISFSLCDTITESPDIPEPPKKAEPPKSQHPSKKSLDHVFRESDKDNVPDKVDNVEPKELVSIPAVAVPPEQPSHKTSNIL
